For at least one entry, the source does not settle the construct or the ends of the probe. The comparison behind a weaker result is the experiment's own reference, which may not be listed here. For some assays here: Where a protein sequence is shown, tags need not be part of it.
Legend:
Assay in all cases: EMSA
DMRT2 (mouse) = DMRT2 (mouse) (UniProt Q8BG36); conditions: much less efficient than DMRT1, 28-fold longer exposure; EMSA: 10 mM Tris-HCl pH 7.9, 100 mM KCl, 10% glycerol, 5 mM MgCl2, 1 mM spermidine, 0.075% Triton-X-100, 1 mM DTT, 1 ug BSA, 0.1 ug dI-dC, 75 ng plasmid DNA; protein translated in vitro; protein details: N-terminal Myc; label: 32P (Klenow fill-in)
DMRT5 (mouse) = target: T1, DMRT5 (mouse) (UniProt A2A9A2); conditions: less efficient than DMRT1 site; EMSA: 10 mM Tris-HCl pH 7.9, 100 mM KCl, 10% glycerol, 5 mM MgCl2, 1 mM spermidine, 0.075% Triton-X-100, 1 mM DTT, 1 ug BSA, 0.1 ug dI-dC, 75 ng plasmid DNA; protein translated in vitro; protein details: N-terminal Myc; label: 32P (Klenow fill-in)
T1 sequence (looked up, limits assumed): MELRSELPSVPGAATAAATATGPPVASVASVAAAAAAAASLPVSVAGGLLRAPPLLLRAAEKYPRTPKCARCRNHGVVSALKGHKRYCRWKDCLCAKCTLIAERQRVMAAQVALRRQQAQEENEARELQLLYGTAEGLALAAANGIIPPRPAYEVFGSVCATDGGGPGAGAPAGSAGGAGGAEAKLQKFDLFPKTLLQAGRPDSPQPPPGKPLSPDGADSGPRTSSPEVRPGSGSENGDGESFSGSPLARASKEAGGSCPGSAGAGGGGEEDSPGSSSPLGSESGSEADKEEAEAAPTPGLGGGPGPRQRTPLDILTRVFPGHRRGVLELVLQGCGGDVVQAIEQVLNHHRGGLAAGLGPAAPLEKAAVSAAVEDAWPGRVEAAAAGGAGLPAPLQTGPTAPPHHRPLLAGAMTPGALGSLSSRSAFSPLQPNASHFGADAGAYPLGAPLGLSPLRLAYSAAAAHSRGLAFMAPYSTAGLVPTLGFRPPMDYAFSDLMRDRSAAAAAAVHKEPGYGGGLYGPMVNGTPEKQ

Chains of the proteins cited; added tags and fusions are not shown. Lines headed by an entry give the natural chain unless they say otherwise; changes in a name come on top.
UniProt Q8BG36: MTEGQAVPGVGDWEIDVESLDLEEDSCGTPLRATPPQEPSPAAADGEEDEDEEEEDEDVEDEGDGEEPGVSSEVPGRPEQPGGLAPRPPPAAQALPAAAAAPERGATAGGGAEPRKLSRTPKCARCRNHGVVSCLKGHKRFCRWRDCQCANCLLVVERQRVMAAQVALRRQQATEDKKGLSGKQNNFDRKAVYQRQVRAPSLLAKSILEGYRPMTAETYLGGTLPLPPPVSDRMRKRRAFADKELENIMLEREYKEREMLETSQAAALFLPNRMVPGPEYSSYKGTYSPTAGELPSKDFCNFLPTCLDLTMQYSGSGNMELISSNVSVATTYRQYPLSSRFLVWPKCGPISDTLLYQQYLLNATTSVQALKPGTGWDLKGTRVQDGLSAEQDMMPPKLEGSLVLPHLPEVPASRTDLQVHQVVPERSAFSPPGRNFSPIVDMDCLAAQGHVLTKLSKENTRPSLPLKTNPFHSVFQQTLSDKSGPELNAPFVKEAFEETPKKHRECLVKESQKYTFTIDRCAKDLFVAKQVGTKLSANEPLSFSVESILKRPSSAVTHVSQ

DMRT7 (mouse) = target: T2, DMRT7 (mouse) (UniProt Q8CGW9); conditions: much less efficient than DMRT1, 28-fold longer exposure; EMSA: 10 mM Tris-HCl pH 7.9, 100 mM KCl, 10% glycerol, 5 mM MgCl2, 1 mM spermidine, 0.075% Triton-X-100, 1 mM DTT, 1 ug BSA, 0.1 ug dI-dC, 75 ng plasmid DNA; protein translated in vitro; protein details: N-terminal Myc; label: 32P (Klenow fill-in)
T2 sequence (looked up, limits assumed): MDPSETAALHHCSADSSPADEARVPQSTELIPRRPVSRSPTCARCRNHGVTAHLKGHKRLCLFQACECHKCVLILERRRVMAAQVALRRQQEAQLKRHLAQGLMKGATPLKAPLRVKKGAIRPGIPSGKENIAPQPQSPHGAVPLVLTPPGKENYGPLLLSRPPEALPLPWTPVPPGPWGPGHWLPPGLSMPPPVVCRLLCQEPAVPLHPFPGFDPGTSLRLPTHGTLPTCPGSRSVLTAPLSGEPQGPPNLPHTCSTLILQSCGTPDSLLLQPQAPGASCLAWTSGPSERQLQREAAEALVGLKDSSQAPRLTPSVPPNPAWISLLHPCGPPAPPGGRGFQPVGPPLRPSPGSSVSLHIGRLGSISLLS

DMRT4 (mouse) = target: T3, DMRT4 (mouse) (UniProt Q8CFG4); conditions: weak shift; EMSA: 10 mM Tris-HCl pH 7.9, 100 mM KCl, 10% glycerol, 5 mM MgCl2, 1 mM spermidine, 0.075% Triton-X-100, 1 mM DTT, 1 ug BSA, 0.1 ug dI-dC, 75 ng plasmid DNA; protein translated in vitro; protein details: C-terminal Myc; label: 32P (Klenow fill-in)
T3 sequence (looked up, limits assumed): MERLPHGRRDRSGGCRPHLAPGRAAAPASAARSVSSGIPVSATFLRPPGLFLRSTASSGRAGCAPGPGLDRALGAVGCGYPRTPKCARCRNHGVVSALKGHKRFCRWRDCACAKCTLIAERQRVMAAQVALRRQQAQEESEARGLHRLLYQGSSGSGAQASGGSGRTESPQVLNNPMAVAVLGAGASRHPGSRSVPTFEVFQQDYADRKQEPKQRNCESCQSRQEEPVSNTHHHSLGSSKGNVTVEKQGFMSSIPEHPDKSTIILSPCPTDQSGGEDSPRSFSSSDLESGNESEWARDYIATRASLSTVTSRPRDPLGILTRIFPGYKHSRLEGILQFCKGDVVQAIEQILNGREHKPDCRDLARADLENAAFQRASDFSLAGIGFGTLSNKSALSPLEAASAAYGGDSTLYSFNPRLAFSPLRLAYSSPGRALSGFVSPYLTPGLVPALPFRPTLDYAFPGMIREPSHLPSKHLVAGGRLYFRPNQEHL

TCGAGCGATACAATGTATCAATTTGC / TCGAGCAAATTGATACATTGTATCGC [2RE]
binding result (DMRT2 (mouse)): binds more weakly

TCGAGCGCTACTGTTACATTGTCGCC / TCGAGGCGACAATGTAACAGTAGCGC [5RE]
binding result (DMRT5 (mouse)): binds more weakly

TCGAGCCCGCAACAATGTTGCAAATC / TCGAGATTTGCAACATTGTTGCGGGC [1RE (Figure 2)]
binding result (DMRT2 (mouse)): binds more weakly
binding result (DMRT7 (mouse)): binds more weakly

TCGAGAAAATGTAACAATTTAGCCGC / TCGAGCGGCTAAATTGTTACATTTTC [4RE]
binding result (DMRT4 (mouse)): binds more weakly

— article PMC1931443
